These are yes or no findings as the source states them, for the method shown. For some assays here: Binding seen in cells or lysates may run through a third protein. Some results given as binding are weak or reduced against the parent protein; the word gives no strength.
Assays:
[1] = biological target: ANKRD54 wild-type with biotinylation target-domain (pEBB-pp-ANKRD54) (UniProt Q6NXT1); assay: pull-down; biotinylated ANKRD54-wt or Δ3 from transfected Cos7 cells on streptavidin magnetic beads, incubated with whole cell lysates of wt and Btk-KO primary mouse spleen cells; western blot (Fig 4); only the target purified
[2] = biological target: ANKRD54 wild-type with biotinylation target-domain (pEBB-pp-ANKRD54) (UniProt Q6NXT1); assay: phage display bio-panning; biotinylated ANKRD54 from transfected HEK 293T lysate immobilized on M-280 streptavidin beads, incubated with phages of a library of all 296 human SH3 domains; retained clones sequenced; three experiments; only the target purified
[3] = biological target: commercially available recombinant ANKRD54 (UniProt Q6NXT1); assay: ELISA; phage-ELISA; commercially available recombinant ANKRD54 adhered to plastic; SH3 phage dilutions 1:10 to 1:160; data not shown; only the target purified
[4] = biological target: ANKRD54 wild-type with biotinylation target-domain (pEBB-pp-ANKRD54) (UniProt Q6NXT1); assay: co-IP; immunoprecipitates of exogenous proteins from co-transfected Cos7 cells; told only in the discussion
[5] = biological target: ANKRD54 wild-type with biotinylation target-domain (pEBB-pp-ANKRD54) (UniProt Q6NXT1); assay: pull-down; ANKRD54-BTD-wt and BTK mutants transfected separately into Cos7 cells; ANKRD54 enriched on streptavidin beads, then incubated with each BTK lysate; immunoblot (Fig 6); only the target purified
[6] = biological target: T1, ANKRD54-Δ3 deletion mutant with biotinylation target-domain (UniProt Q6NXT1); assay: co-IP; Namalwa B-cells electroporated with ANKRD54-BTD wt or Δ3; precipitation with streptavidin beads; blot for endogenous BTK (Fig 2A)
T1 sequence (chain, biotin on the single acceptor lysine of the BTD): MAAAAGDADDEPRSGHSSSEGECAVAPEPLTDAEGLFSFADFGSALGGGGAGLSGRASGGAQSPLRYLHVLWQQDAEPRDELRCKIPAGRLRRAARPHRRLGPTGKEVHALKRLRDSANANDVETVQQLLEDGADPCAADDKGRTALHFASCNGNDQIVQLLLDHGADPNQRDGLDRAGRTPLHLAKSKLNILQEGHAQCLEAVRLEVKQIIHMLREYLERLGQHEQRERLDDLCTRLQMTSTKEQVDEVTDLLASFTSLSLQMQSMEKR

Sequences of proteins named here, by UniProt entry; tags and fusion partners are left off. A change or cut given only in a name is not applied to a line headed by its entry. Residues count along the entry.
UniProt P25911: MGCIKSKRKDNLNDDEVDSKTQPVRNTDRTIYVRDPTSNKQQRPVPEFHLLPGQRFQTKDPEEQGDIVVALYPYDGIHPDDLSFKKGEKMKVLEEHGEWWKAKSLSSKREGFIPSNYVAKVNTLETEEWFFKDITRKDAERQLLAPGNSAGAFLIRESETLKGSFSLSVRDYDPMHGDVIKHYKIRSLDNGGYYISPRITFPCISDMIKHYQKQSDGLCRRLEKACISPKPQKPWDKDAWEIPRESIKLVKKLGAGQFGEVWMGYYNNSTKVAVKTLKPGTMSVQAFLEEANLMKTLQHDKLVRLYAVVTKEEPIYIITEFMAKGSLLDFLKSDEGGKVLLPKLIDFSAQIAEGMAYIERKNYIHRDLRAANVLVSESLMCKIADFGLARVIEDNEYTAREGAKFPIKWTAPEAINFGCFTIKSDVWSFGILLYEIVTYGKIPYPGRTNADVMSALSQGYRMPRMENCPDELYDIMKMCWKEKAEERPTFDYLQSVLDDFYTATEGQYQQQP
UniProt P42680, residues 179-239: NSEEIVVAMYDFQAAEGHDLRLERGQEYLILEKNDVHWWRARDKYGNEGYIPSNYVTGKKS
UniProt Q06187: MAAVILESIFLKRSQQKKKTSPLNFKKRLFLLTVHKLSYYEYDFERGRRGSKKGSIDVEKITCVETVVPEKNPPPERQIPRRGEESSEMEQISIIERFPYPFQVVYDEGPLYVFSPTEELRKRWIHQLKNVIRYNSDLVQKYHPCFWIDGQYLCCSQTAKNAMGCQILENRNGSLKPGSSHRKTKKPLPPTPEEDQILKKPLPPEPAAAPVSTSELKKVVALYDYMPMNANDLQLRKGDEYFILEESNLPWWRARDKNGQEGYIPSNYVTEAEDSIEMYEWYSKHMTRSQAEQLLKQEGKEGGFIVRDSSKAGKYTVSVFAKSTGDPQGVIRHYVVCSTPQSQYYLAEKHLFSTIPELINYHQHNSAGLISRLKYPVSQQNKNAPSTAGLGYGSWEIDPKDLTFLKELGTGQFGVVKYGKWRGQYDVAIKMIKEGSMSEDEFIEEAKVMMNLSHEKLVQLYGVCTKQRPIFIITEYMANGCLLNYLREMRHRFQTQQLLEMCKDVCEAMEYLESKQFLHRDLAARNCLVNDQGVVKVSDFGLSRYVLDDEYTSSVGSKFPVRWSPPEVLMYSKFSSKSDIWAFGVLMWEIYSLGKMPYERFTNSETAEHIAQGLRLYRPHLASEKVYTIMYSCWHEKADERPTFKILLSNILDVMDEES
UniProt P51451, residues 58-118: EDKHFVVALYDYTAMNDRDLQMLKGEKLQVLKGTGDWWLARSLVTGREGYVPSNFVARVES
UniProt Q13882, residues 8-72: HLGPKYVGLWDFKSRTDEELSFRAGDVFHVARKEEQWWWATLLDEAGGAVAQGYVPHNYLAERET
UniProt P07948, residues 63-123: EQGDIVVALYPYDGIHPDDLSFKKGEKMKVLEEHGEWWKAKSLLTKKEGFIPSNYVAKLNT
UniProt P35991: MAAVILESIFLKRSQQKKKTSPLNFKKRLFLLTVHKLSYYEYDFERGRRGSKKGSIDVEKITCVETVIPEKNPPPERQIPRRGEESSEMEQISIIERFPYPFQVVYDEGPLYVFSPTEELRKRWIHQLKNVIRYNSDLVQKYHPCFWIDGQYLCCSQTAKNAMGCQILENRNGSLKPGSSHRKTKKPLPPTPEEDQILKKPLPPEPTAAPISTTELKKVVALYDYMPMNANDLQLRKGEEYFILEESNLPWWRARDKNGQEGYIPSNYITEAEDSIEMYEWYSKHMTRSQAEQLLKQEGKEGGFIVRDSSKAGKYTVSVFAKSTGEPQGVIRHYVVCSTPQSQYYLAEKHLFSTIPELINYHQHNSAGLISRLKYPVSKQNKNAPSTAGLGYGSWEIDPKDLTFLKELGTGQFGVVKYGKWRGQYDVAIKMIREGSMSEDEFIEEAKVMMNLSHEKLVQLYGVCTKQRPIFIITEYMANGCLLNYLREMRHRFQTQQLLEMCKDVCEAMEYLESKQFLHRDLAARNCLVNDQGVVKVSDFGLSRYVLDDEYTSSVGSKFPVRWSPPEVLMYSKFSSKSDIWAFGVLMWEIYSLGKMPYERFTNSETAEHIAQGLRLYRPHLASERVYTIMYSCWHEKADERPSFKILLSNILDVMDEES

[7] = biological target: ANKRD54 wild-type with biotinylation target-domain (pEBB-pp-ANKRD54) (UniProt Q6NXT1); assay: as above
[8] = biological target: T1, ANKRD54-Δ3 deletion mutant with biotinylation target-domain; assay: pull-down; streptavidin-biotin complexes of ANKRD54-BTD wt or Δ3 from transiently transfected Cos7 cells, incubated with Namalwa B-cell lysate; western blot (Fig 2B); only the target purified
[9] = biological target: ANKRD54 wild-type with biotinylation target-domain (pEBB-pp-ANKRD54) (UniProt Q6NXT1); assay: as above

Substance	binding [2]	binding [3]	also measured
LYN, endogenous in primary mouse spleen cells (from UniProt P25911 1-512)			binding [1]: binds weakly
TEC SH3 domain displayed on phage (from UniProt P42680 179-239) (domain or fragment)	binds	binds weakly	
wild-type BTK expressed in Cos7 cells (from UniProt Q06187 1-659)			binding [4]: binds; binding [5]: binds
BLK SH3 domain displayed on phage (from UniProt P51451 58-118) (domain or fragment)	binds	binds weakly	
PTK6 SH3 domain displayed on phage (from UniProt Q13882 8-72) (domain or fragment)	binds		
BTK-SH3 domain displayed on phage (from UniProt Q06187 214-274) (domain or fragment)	binds	binds weakly	
Bruton’s Tyrosine Kinase (BTK), endogenous in Namalwa B-cells (from UniProt Q06187 1-659)			binding [6]: no binding; binding [7]: binds; binding [8]: no binding; binding [9]: binds
LYN SH3 domain displayed on phage (from UniProt P07948 63-123) (domain or fragment)	binds	binds weakly	
BTK, endogenous in primary mouse spleen cells (from UniProt P35991 1-659)			binding [1]: binds

— publication PMC5378395
